Test results published in patent publication US20250114462A1, “HYDROPHILIC FUNCTIONALIZED PARTICLES IN THE DELIVERY OF HYDROPHOBIC DRUGS” (NEW JERSEY INSTITUTE OF TECHNOLOGY, priority 2023, published 2025).

Test: In vitro dissolution profile (USP-42 paddle method)
Assay type: physicochemical
Procedure: Dissolution measurements were carried out using USP-42 paddle method with Symphony 7100 Distek dissolution instrument. Agilent 8453 model UV-Visible spectrophotometer was used at a wavelength at 295.0 nm for the reference drug Griseofulvin standard absorbance measurements that calibrated to measure the formulation polymer incorporated drugs concentration and dissolution percentage estimation.

For `Cc1cc(NS(=O)(=O)c2ccc(N)cc2)no1` [Sulfamethoxazole (SMZ), sulfamethoxazole], the Initial dissolution rate was 186.5 µg/min and the “50% dissolution time (T50)” value (composites with 0.5 to 1.0% of HFP) was 41.
